Results are given in words; binding and its absence hold for the method and conditions named. Some results given as binding are weak or reduced against the parent protein; the word gives no strength.
Biological target: rhesus monkey MCH-1R (melanin-concentrating hormone type 1 receptor) (rhesus monkey) (UniProt Q8MJ89)
Experiment: radioligand binding, 100 pM, on adherent transfected HEK293T cells

Amino acid sequences for entries named in this document (tags omitted). A change or cut given only in a name is not applied to a line headed by its entry.
UniProt Q8MJ89: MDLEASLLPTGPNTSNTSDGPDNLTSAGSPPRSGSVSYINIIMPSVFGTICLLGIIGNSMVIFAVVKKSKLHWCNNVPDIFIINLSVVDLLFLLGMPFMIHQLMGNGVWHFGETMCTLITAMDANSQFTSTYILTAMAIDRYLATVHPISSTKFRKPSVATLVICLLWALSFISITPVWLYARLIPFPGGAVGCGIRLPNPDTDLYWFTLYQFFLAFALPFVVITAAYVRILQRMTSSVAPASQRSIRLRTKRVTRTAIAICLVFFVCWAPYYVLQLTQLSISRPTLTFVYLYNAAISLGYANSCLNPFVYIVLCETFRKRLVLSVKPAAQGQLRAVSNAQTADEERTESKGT
UniProt P20382: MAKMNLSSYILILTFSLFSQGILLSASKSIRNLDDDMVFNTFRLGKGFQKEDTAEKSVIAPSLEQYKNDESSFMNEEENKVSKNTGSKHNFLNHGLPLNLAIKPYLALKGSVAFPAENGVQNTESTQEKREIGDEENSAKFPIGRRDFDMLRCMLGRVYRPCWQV

binding: binds
Binder: DFDMLRCMLGRVYRPCWQV (peptide, UniProt P20382 147-165, looked up, 125I radiolabel (position not given)) [[^125I]-MCH]
